Measurements from PubChem BioAssay AID540276 (National Center for Advancing Translational Sciences (NCATS), 2011).
Hit rate of the full screen: of about 300,000 compounds, about 5,400 (1.8%) were called active. The inconclusive results got no clear call from the source; some entries with a clear call stand among them for comparison. The call rests on the fitted dose curve; tested in HEK293 cells. A potency beside an inconclusive call is a rough fit, not a confirmed value.

Assay: qHTS for inhibitors of binding or entry into cells for Marburg Virus
Details: Marburg virus pseudotyped entry inhibition, cell reporter; series mostly up to 37.8 µM
Potency means the concentration at half of the fitted maximal effect.

| SMILES | Potency |
| --- | --- |
| CS(=O)(=O)N(CC(=O)Nc1ccccc1C(=O)NCc1ccco1)c1ccccc1F | inactive |
| CCc1ccc(OCc2cccc(C(=O)N/N=C\c3cnn(C)c3C)c2)cc1 | inconclusive: 6.31 µM [activator, single point] |
| Cc1ccc(/C=N\NC(=O)COc2ccc(C)cc2[N+](=O)[O-])cc1 | inactive |
| O=C(N/N=C/c1ccc(OCc2ccccc2)cc1)c1cc[n+](Cc2ccccc2)cc1 | inconclusive: 2.82 µM [activator, single point] |
| O=S(=O)(Nc1cc(Sc2ncn[nH]2)c(O)c2ccccc12)c1ccccc1 | inconclusive: 2.82 µM [inhibitor, single point] |
| COC(=O)c1cn(CCOc2ccccc2)c2ccccc12 | inactive |
| Cc1ccc(S(=O)(=O)N(C)C)cc1NC(=O)c1c(-c2c(F)cccc2Cl)noc1C | inactive |
| CCCCn1c(CCC(=O)O)nc2cc(S(=O)(=O)N3CCCC3)ccc21 | inactive |
| CC(C)(C)c1ccc(CN(Cc2ccccc2)C(c2ccccn2)c2nnnn2C(C)(C)C)cc1 (stereo not given) | inconclusive: 15.8 µM [inhibitor, single point] |
| Cc1cc(Br)ccc1OCCCCNC(C)(C)C | inconclusive: 11.2 µM [inhibitor, single point] |
| Cc1ccc(C(=O)N/C(=C\c2cn(C)c3ccccc23)C(=O)OCCN(C)C)cc1 | inconclusive: 3.98 µM [inhibitor, partial curve, poor fit] |
| COc1cccc(CN2CCN(Cc3cccc(Br)c3)CC2)c1OC | inconclusive: 15.8 µM [inhibitor, partial curve, poor fit] |
| COc1cccc(C(=O)Nc2cnn(C(C)C)c2)c1 | inactive |
| N/C(Cc1ccc([N+](=O)[O-])cc1)=N\OC(=O)c1ccc2ccccc2c1 | inconclusive: 35.5 µM [inhibitor, single point] |
| O=C(CCN1C(=O)/C(=C\c2ccccc2)SC1=S)NNC(=O)c1cccnc1 | inconclusive: 35.5 µM [inhibitor, single point] |
| CCOc1ccc(CCNC(=O)COC(=O)c2nn(C)c(=O)c3ccccc23)cc1OCC | inactive |
| CCc1ccccc1NC(=O)Cn1c(=O)n(CC(=O)NCCc2ccccc2)c(=O)c2ccccc21 | inactive |
| CCOC(=O)c1[nH]c(C)c(C(=O)NCc2cccc(OC)c2)c1C | inconclusive: 35.5 µM [inhibitor, single point] |
| COc1cc(OC)cc(C(=O)NCCSC2CCCCC2)c1 | inactive |
| COc1cc(Cl)c(C)cc1NC(=O)CSc1cc(-c2ccccc2)nc(C)n1 | inactive |
| COc1ccc(C(=O)c2cn(Cc3cccc(C)c3)c3cc4c(cc3c2=O)OCO4)cc1 | inactive |
| Cc1ccc(Cn2nnnc2CN2CCC(c3nc4ccc(Cl)cc4[nH]3)CC2)cc1 | inconclusive: 10 µM [inhibitor, partial curve] |
| O=c1[nH]c(/C(Cl)=C/c2cc(Cl)ccc2O)nc2cc(Cl)ccc12 | inactive |
| COc1ccc(-c2noc(-c3ccc(C)cc3Cl)n2)cc1OC | inconclusive: 6.31 µM [activator, single point] |

| SMILES | Potency |
| --- | --- |
| NC(=O)c1ccc(CSc2nc3ccccc3s2)cc1 | inconclusive: 17.8 µM [activator, partial curve, poor fit] |
| COc1c(Cl)cc(Cl)cc1C(=O)Nc1ccc(CN2CCCCC2)cc1 | inconclusive: 15.8 µM [inhibitor, partial curve, poor fit] |
| O=C(Cc1ccccc1)N/N=C/c1cccn1-c1ccc([N+](=O)[O-])cc1 | inconclusive: 12.6 µM [inhibitor, single point] |
| CCOc1ccc(C(=O)NCC2CCCO2)cc1 (stereo not given) | inconclusive: 18.3 µM [activator, single point] |
| Oc1ccc(Cl)cc1C(C#Cc1ccccc1)N1CCOCC1 (stereo not given) | inconclusive: 2 µM [inhibitor, partial curve] |
| Cc1ccc(C)c(N2CCN(C(=O)c3ccc4nc(-c5ccco5)c(-c5ccco5)nc4c3)CC2)c1 | inconclusive: 20.6 µM [inhibitor, partial curve, poor fit] |
| COc1ccc(C)cc1N(CC(=O)N1CCCCCC1)S(=O)(=O)c1ccc(C)cc1 | inconclusive: 25.1 µM [inhibitor, single point] |
| Cc1cccc(NC(=S)NCC(c2cccnc2)N2CCOCC2)c1C (stereo not given) | inconclusive: 12.6 µM [activator, partial curve, poor fit] |
| CCCCCC1CCC(c2nnc(SCC(C)=O)o2)CC1 (stereo not given) | inconclusive: 8.91 µM [inhibitor, partial curve] |
| Cc1ccc(C(C[N+](=O)[O-])c2c(-c3ccccc3O)[nH][nH]c2=O)cc1 (stereo not given) | inconclusive: 22.4 µM [inhibitor, single point] |
| CC(Nc1ccc2c(c1)OCCO2)C(=O)N1c2ccccc2CC1C (stereo not given) | inactive |
| Cc1cc(NC(=O)CSc2nc3c(cc2C#N)CCC3)no1 | inconclusive: 23.1 µM [inhibitor, single point] |
| O=C(NNc1cccc(Cl)n1)C(F)(F)F | inactive |
| N#Cc1cc(C(=O)c2ccccc2O)cn(-c2ccc(Cl)cc2)c1=O | inconclusive: 3.55 µM [inhibitor, partial curve, poor fit] |
| CCOc1cccc(C(=O)Nc2cccc(-c3nnc(-c4ccc(C)cc4)o3)c2)c1 | inconclusive: 35.5 µM [activator, single point] |
| CCOC(=O)N1CCC(NS(=O)(=O)c2cc(Br)cc3c2N(C(=O)CC)CC3)CC1 | inconclusive: 4.47 µM [inhibitor, partial curve, poor fit] |
| COc1ccc(NC(=S)NC(NC(=O)c2cccc(C)c2)C(Cl)(Cl)Cl)c([N+](=O)[O-])c1 (stereo not given) | inconclusive: 28.2 µM [inhibitor, single point] |
| CCc1ccc2c(c1)cc(CN(C(=S)Nc1cccc(C)c1)C1CC1)c1nnnn12 | inconclusive: 18.3 µM [inhibitor, single point] |
| CCSc1nnc(NC(=O)CSc2nccn2-c2cccc(C)c2C)s1 | inactive |
| CCOc1ccc(C(=O)Nc2nc(C)cc(C)n2)cc1[N+](=O)[O-] | inactive |
| CCc1nnc(NC(=O)c2sc3nc4c(cc3c2N)CCCCCC4)s1 | inconclusive: 2 µM [inhibitor, partial curve, poor fit] |
| CC(C)Cc1ccc(C(C)C(=N)N)cc1 (stereo not given) | inconclusive: 20 µM [inhibitor, partial curve, poor fit] |
| O=C(CN1CCN(C(=O)c2ccco2)CC1)N1CCc2[nH]c3ccccc3c2C1 | inactive |
| COCCCN1C(=O)c2[nH]nc(-c3ccccc3O)c2C1c1ccc(OCc2ccccc2)cc1 (stereo not given) | inconclusive: 35.5 µM [inhibitor, single point] |

| SMILES | Potency |
| --- | --- |
| COC(=O)c1sc(N2C(=O)c3oc4ccccc4c(=O)c3C2c2ccc(O)cc2)nc1C (stereo not given) | inactive |
| COc1cc(NC(=O)CCS(=O)(=O)c2nc(-c3ccc4c(c3)OCO4)cc(C(F)(F)F)n2)cc(OC)c1OC | inconclusive: 11.2 µM [inhibitor, partial curve, poor fit] |
| O=C(NCCN1CCN(c2ccccc2)CC1)c1cccc(Br)c1 | inconclusive: 25.9 µM [inhibitor, partial curve, poor fit] |
| COCCN(C(=S)Nc1ccccc1C)C(C)c1cccnc1 (stereo not given) | inconclusive: 5.62 µM [activator, single point] |
| O=C(CSc1nnc(NC(=O)c2c(F)cccc2Cl)s1)Nc1ccccc1F | inactive |
| O=C(CSC1=NCCS1)Nc1ccnc2ccccc12 | inactive |
| CN(C)c1nc(N2CCN(c3ccccc3)CC2)c(C#N)c(=O)o1 | inconclusive: 29.1 µM [inhibitor, single point] |
| COc1ccc(CCNC(=O)C2CCCN(Cc3nc(-c4ccccc4C)oc3C)C2)cc1OC (stereo not given) | inconclusive: 13 µM [inhibitor, partial curve, poor fit] |
| CC(C)C(=O)N1CCN(c2ccccc2NC(=O)COc2ccccc2)CC1 | inactive |
| Cc1nc(SCC(=O)N2CCc3ccccc32)n[nH]1 | inactive |
| COc1ccccc1-c1nnc2sc(-c3ccc(N(C)C)cc3)nn12 | inconclusive: 7.08 µM [inhibitor, full curve, poor fit] |
| COc1cc(CCC(=O)OCC(=O)Nc2sccc2C(N)=O)cc(OC)c1OC | inactive |
| CCOC(=O)c1c(-c2ccc(C)cc2)csc1NC(=S)NC(=O)c1ccccc1 | active: 1.83 µM |
| Cc1c(C(=O)NCCN(C)C)oc2ccc(S(=O)(=O)N3CCCC3)cc12 | inconclusive: 35.5 µM [inhibitor, single point] |
| O=C(O)COc1ccc2nsnc2c1Cl | inactive |
| CCOC(=O)CSc1nc(C(C)(C)C)cc(C(F)(F)F)c1C#N | inconclusive: 20.6 µM [inhibitor, single point] |
| CCOC(=O)c1cnn(Cc2ccc(C)cc2)c1N | inconclusive: 22.4 µM [inhibitor, single point] |
| Cc1ccc(NC(=S)NNc2ccc([N+](=O)[O-])cc2S(=O)(=O)Nc2ccccc2C(=O)O)cc1C | inactive |
| O=c1[nH]nc(SCCS(=O)(=O)c2ccc(F)cc2)n1-c1ccccc1 | inactive |
| Cc1ccc2nc(C3CCN(S(=O)(=O)c4ccc5ccccc5c4)CC3)[nH]c2c1 | inconclusive: 29.1 µM [inhibitor, single point] |
| CCCCOC(=O)C1[C@H]2C(=O)N(CCc3ccccc3)C[C@]23C=C[C@H]1O3 (stereo not given in full) | inconclusive: 6.51 µM [inhibitor, single point] |
| CC(C)[C@@H](OCc1ccccc1)[C@H](C)C=NO[C@H](C)c1cn([C@H](CO)Cc2ccccc2)nn1 | inconclusive: 0.596 µM [activator, full curve, poor fit] |

A stretch from further up, for reference:

| SMILES | Potency |
| --- | --- |
| O=c1[nH]nc(SCCS(=O)(=O)c2ccc(F)cc2)n1-c1ccccc1 | inactive |
| Cc1ccc2nc(C3CCN(S(=O)(=O)c4ccc5ccccc5c4)CC3)[nH]c2c1 | inconclusive: 29.1 µM [inhibitor, single point] |
| CCCCOC(=O)C1[C@H]2C(=O)N(CCc3ccccc3)C[C@]23C=C[C@H]1O3 (stereo not given in full) | inconclusive: 6.51 µM [inhibitor, single point] |
| CC(C)[C@@H](OCc1ccccc1)[C@H](C)C=NO[C@H](C)c1cn([C@H](CO)Cc2ccccc2)nn1 | inconclusive: 0.596 µM [activator, full curve, poor fit] |
